± gives the standard deviation. The list shows a part of the results, in another mix than the full data. Many of these values have a large error.

The values below come from the supplement of paper PMC10338343.
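Note: 1 nM active piRISC with 0.1 nM target library at 33 °C single turnover.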

In the test the test system is MIWI (PIWIL1) piRISC loaded with piRNA #2 (30 nt). Description: pre-steady-state target cleavage rate (min^-1); MIWI and MILI are mouse PIWI proteins and EfPiwi is from a freshwater sponge; tags in brackets are library labels; higher = faster piRNA-guided slicing of the target. To be noted: guide: piRNA #2 5'p-UUAGGUAACCCAGUAGAUCCAGAGGAAUUC; auxiliary factor: 500 nM mouse GTSF1. In outline:
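The pre-steady-state cleavage rate was derived from a burst-and-steady-state fit of Cleave-'n-Seq data. For these assays, 1 nM active affinity-purified piRISC loaded with a single synthetic guide was mixed with […] a transcribed, DNA-blocked target RNA library in HEPES–potassium acetate buffer at 33 °C, with or without 500 nM GTSF1 partner protein, for 0–8 or 0–960 min. Sequencing counts of uncleaved targets were normalised to depth and to weakly complementary targets, and k3 was capped at 0.0001 min^-1 after three trials were pooled.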
Turning to CUUAAGGAGACCUAGUACACCGUUACCUAA, the “pre-steady-state target cleavage rate” value turned out to be 0.000994 ± 0.0091.

Turning to CUUAAGGAGACGUUCUACUGGGUUUCCUAA, the “pre-steady-state target cleavage rate” value turned out to be 0.00163 ± 0.0054.

Regarding CUUAAGGAGACCUAGAGCUGGGUUACCUAA, the “pre-steady-state target cleavage rate” value is 0.000472 ± 0.026.

For CUUAAGGAGACCAUCUAGUCGGUUACCUAA, the “pre-steady-state target cleavage rate” value stood at 0.000311 ± 0.019.

For CUUAAGGAGAGGAUCUACUGGGAAUCCUAA, the “pre-steady-state target cleavage rate” value was 0.000544 ± 0.014.

CUUAAGGAGACCUACUACUCGGUUACGUAA: the “pre-steady-state target cleavage rate” value turned out to be 0.000321 ± 0.01.

For CUUAAGGAGACCAACUACUGGGUUACGUAA, the “pre-steady-state target cleavage rate” value was found to be 0.00389 ± 0.004.

On to GAAUUCCUCUGGAUCUCACUGGGUUACCUAA, for which the “pre-steady-state target cleavage rate” value amounted to 0.00338 ± 0.0043.

Take CUUAAGGAGUGGAUCUACAUGGGUUACCUAA: the “pre-steady-state target cleavage rate” value is 0.000105 ± 0.063.

For the sequence CUUAAGGACUGGAUCUACUGGGUUUGCUAA, the “pre-steady-state target cleavage rate” value was 0.0111 ± 0.012.

For the sequence CUUAAGGACUGGAACUACUGGCUUACCUAA, the “pre-steady-state target cleavage rate” value is 0.00413 ± 0.01.

For CUAUUCCUCUGGAUCUACUGAGGUUACCUAA, the “pre-steady-state target cleavage rate” value amounted to 0.00457 ± 0.0048.

For CUUAAGGAGUGGAUCAUCUGGGUUACCUAA, the “pre-steady-state target cleavage rate” value turned out to be 0.000444 ± 0.022.

For CUUAAGGAGAGGAUCUACUGGGUUAGCUAA, the “pre-steady-state target cleavage rate” value amounted to 0.00343 ± 0.0055.

Turning to CUUAAGGAGUGCAUCUACUGGGUUACCUUA, the “pre-steady-state target cleavage rate” value turned out to be 0.00336 ± 0.0034.

For the sequence CUUAAGGAGACGAUCUACUGGAGUUACCUAA, the “pre-steady-state target cleavage rate” value is 0.00171 ± 0.0056.

CUUAAGGAGACCUUGUACUGGGUUACGUAA: the “pre-steady-state target cleavage rate” value came to 0.0003 ± 0.019.

Regarding CUAUUCCUCUUGAUCUACUGGGUUACCUAA, the “pre-steady-state target cleavage rate” value is 0.767 ± 0.04.

With CUUAAGGAGACGAUCUAACUGGGUUACCUAA, the “pre-steady-state target cleavage rate” value is 0.000677 ± 0.01.

For the sequence CUUAAGGAGACCUUCUACUGGGUUACGCUAA, the “pre-steady-state target cleavage rate” value was found to be 0.00146 ± 0.0057.

As to “CUUAAGGAGACCUAGAUGACCGUUACCAUA [g4:g9:cont:t1A]”, the “pre-steady-state target cleavage rate” value is 0.000235 ± 0.021.

Turning to CUUAAGGAGACCAUCUACUGGGUUAACCUAA, the “pre-steady-state target cleavage rate” value amounted to 0.00219 ± 0.0053.

Take CUUAAGGAGAGGAACUACAGGGUUACCUAA: the “pre-steady-state target cleavage rate” value was found to be 0.000187 ± 0.043.

Regarding CUUAAGGAGUCGAUCUACUCGGUUACCUAA, the “pre-steady-state target cleavage rate” value was 0.00128 ± 0.0078.

Regarding CUUUUCCACUGGAUCUACAGGGUUACCUAA, the “pre-steady-state target cleavage rate” value turned out to be 0.248 ± 0.016.

In the case of CUUAAGGAGACGAUUUACUGGGUUACCUAA, the “pre-steady-state target cleavage rate” value was found to be 0.0014 ± 0.0041.

Consider CAUUUCCUCUGGUUCUACUGGGUUACCUAA, for which the “pre-steady-state target cleavage rate” value is 0.772 ± 0.046.

Consider CUUAAGGACUGGAUCUACUGGGUUAGCAAA, for which the “pre-steady-state target cleavage rate” value was 0.00107 ± 0.019.

For CUUAAGGAGACCUUCUACUGGGUUAACUAA, the “pre-steady-state target cleavage rate” value came out at 0.00168 ± 0.005.

For the sequence CUUAAGGAGACGUUCUACUGGGUUACGUAA, the “pre-steady-state target cleavage rate” value came to 0.000448 ± 0.013.

CUUAAGGAGACGUUCUACUGGGUAACCUAA: the “pre-steady-state target cleavage rate” value amounted to 0.000182 ± 0.026.

Take CUUAAGGAGUGGAACUACUGCGUUACCUAA: the “pre-steady-state target cleavage rate” value stood at 0.00567 ± 0.0083.

With CUUAAGGAGACGAUACUACUGGGUUACCUAA, the “pre-steady-state target cleavage rate” value is 0.000774 ± 0.0086.

Take GAAUACCUCUGGAUCUACUGGGUAACCUAA: the “pre-steady-state target cleavage rate” value came out at 0.168 ± 0.035.

CUUAAGGACUGGAUCUACUGCGUUUCCUAA: the “pre-steady-state target cleavage rate” value stood at 0.0102 ± 0.015.

CUUAAGGAGACCUUGUACUGCGUUACCUAA: the “pre-steady-state target cleavage rate” value worked out at 0.000508 ± 0.0095.

Turning to CUUAAGGAGUGCAUCUACUGGGUUAGCUAA, the “pre-steady-state target cleavage rate” value was 0.00105 ± 0.0083.

In the case of CUUAAGGAGACCUUCUGCUGGGUUACCUAA, the “pre-steady-state target cleavage rate” value was 0.00273 ± 0.0064.

For CUUAAGGAGACCUAGAUCGGGGUUACCUAA, the “pre-steady-state target cleavage rate” value was determined as 0.000594 ± 0.0099.

On to CUUAAGGAGACCAACUACUGGGUUACCUAA, for which the “pre-steady-state target cleavage rate” value amounted to 0.00287 ± 0.0036.

For the sequence CUUAAGGACUGGUUCAACUGGGUUACCUAA, the “pre-steady-state target cleavage rate” value stood at 0.00896 ± 0.014.

As for CUUAAGGAGACCUUCAACUGGGUUAGCUAA, the “pre-steady-state target cleavage rate” value came to 0.000216 ± 0.019.

In the case of CAAUUCCUCUGGAUCUACUGGGUUACCUGAA, the “pre-steady-state target cleavage rate” value was 0.438 ± 0.14.

Regarding CUUAAGGAGACCUAGAUCUGGGUACCUAA, the “pre-steady-state target cleavage rate” value turned out to be 0.000141 ± 0.033.

Take GAAUUCCUCUGGAUCUUGAGGGUUACCUAA: the “pre-steady-state target cleavage rate” value stood at 0.00301 ± 0.005.

For the sequence CUUAAGGAGAGGAUCUACUGGGAUACCUUA, the “pre-steady-state target cleavage rate” value came out at 0.000292 ± 0.02.

CUUAAGGAGAGGAUCUACUGGGUAUACCUAA: the “pre-steady-state target cleavage rate” value was determined as 0.0037 ± 0.0043.

As for CUUAAGGAGUGCAUCUUCUGGGUUACCUAA, the “pre-steady-state target cleavage rate” value is 0.000628 ± 0.019.

Regarding GAAUUCCACUCGAUCUACUGGGUUACCUAA, the “pre-steady-state target cleavage rate” value turned out to be 0.564 ± 0.056.

For CUUAAGGAGACGAUCUACUGCGGUUACCUAA, the “pre-steady-state target cleavage rate” value amounted to 0.0011 ± 0.0061.

Consider “CAAUUCCUCUGGAUCUACUGGGUUUGGAUA [g7:g29:cont:t1A]”, for which the “pre-steady-state target cleavage rate” value was determined as 0.00294 ± 0.0059.

As to CUUAAGGAGACCUAGUACUGGGUUACGUUA, the “pre-steady-state target cleavage rate” value worked out at 0.000371 ± 0.032.

As to CUUAAGGAGACGAUCUACUCGGUUACCUAA, the “pre-steady-state target cleavage rate” value is 0.000755 ± 0.011.

On to CUUAAGGAGACCAUCUACUGGGUACCUAA, for which the “pre-steady-state target cleavage rate” value is 0.00193 ± 0.0049.

Take CAAUUCCUCUGGAUCUUCUGGGUUACCUAA: the “pre-steady-state target cleavage rate” value was found to be 0.49 ± 0.065.

In the case of CUUAAGGAGUGGAUGUACUGGGUUACCAAA, the “pre-steady-state target cleavage rate” value was 0.00658 ± 0.012.

Consider GAAUUCCUCUUGGAUCUACUGGGUUACCUAA, for which the “pre-steady-state target cleavage rate” value came to 0.402 ± 0.042.

Consider CUUAAGGAGAGGAUCUACUAGGGUUACCUAA, for which the “pre-steady-state target cleavage rate” value is 0.000744 ± 0.013.

Regarding CUUAAGGAGACCAUCUACUGGGUAACCUUA, the “pre-steady-state target cleavage rate” value worked out at 0.000623 ± 0.011.

With CUUUUCCUCUGGAUCUACUCCCUUACCUAA, the “pre-steady-state target cleavage rate” value was 0.00127 ± 0.0081.

For CUUAAGGAGACCAUCUACUGGGUUACCAUAA, the “pre-steady-state target cleavage rate” value is 0.00272 ± 0.003.

Take CAAUUCCUCUCCUUCUACUGGGUUACCUAA: the “pre-steady-state target cleavage rate” value is 0.613 ± 0.058.

Consider “CUUAAGGAGACCAUCUACUGGGUUACCUAU [g2:g18:cont:t1U]”, for which the “pre-steady-state target cleavage rate” value amounted to 0.00309 ± 0.0058.

In the case of GAAUUCCUCUGGAUUCUACUGGGUUACCUAA, the “pre-steady-state target cleavage rate” value was 0.224 ± 0.036.

Regarding CUUAAGGUCUGGAUCUACUGGCUAACCUAA, the “pre-steady-state target cleavage rate” value was determined as 0.0066 ± 0.0075.

As for CAAUUCCUCCGGAUCUACUGGGUUACCUAA, the “pre-steady-state target cleavage rate” value was determined as 0.677 ± 0.096.

Consider CUUAAGGUCUGGAUCUUGUGGGUUACCUAA, for which the “pre-steady-state target cleavage rate” value worked out at 0.00238 ± 0.0075.

Take CUUAAGGAGACCUAGAACUGGGUUACUUAA: the “pre-steady-state target cleavage rate” value worked out at 0.00028 ± 0.034.

Regarding CUUAAGGAGACCAUCUACUGCGUUACCUAA, the “pre-steady-state target cleavage rate” value is 0.00259 ± 0.0034.

With CUAAUCCUCUGGAUCUACUGGGUUACGUAA, the “pre-steady-state target cleavage rate” value worked out at 0.66 ± 0.052.
